Data published in patent US20070161637A1, “Substituted pyridin-2-ylamine analogues” (Neurogen Corporation, priority 2003, published 2007).
Structures were worked out from names or drawings and are uncertain.

Chains of the proteins cited; added tags and fusions are not shown.
UniProt Q8NER1, whole entry: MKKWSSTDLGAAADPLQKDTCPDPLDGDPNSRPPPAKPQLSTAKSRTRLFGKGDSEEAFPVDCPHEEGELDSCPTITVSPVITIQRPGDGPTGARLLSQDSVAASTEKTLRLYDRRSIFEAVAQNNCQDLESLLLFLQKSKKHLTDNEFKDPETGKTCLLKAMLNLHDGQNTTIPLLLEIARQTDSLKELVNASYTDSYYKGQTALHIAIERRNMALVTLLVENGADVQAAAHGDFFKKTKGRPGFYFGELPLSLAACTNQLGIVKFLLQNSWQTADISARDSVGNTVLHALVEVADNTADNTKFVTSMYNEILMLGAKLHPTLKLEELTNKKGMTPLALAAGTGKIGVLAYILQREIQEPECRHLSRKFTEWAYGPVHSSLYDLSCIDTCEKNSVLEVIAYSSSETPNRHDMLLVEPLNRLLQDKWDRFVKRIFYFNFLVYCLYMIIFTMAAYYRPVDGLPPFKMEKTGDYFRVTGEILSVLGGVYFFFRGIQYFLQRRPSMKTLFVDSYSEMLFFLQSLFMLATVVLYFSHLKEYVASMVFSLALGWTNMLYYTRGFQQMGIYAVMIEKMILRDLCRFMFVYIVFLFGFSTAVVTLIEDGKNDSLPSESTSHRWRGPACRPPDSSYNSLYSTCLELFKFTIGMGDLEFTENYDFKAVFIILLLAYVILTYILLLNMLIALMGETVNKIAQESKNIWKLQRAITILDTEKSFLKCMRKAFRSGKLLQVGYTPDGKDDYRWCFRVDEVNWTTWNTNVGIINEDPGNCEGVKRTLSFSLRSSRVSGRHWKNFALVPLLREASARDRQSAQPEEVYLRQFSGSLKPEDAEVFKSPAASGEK

Target: human capsaicin receptor (Homo sapiens, UniProt Q8NER1)
Assay: Calcium mobilization assay, determination of antagonist activity (Example 6)
Format: cell-based
Conditions: concentration giving 50% decrease in the fluorescence response of cells expressing human capsaicin receptor exposed to capsaicin

- IC50: < 1 µM
Compound: CC(C)(C)c1ccc(Nc2nc(Cl)nc(OCc3ccccc3Cl)n2)cc1
